Experimental findings from publication PMC6841725 are described below.

By UniProt entry, the sequences of proteins in these tests, tags left out.
UniProt P28223: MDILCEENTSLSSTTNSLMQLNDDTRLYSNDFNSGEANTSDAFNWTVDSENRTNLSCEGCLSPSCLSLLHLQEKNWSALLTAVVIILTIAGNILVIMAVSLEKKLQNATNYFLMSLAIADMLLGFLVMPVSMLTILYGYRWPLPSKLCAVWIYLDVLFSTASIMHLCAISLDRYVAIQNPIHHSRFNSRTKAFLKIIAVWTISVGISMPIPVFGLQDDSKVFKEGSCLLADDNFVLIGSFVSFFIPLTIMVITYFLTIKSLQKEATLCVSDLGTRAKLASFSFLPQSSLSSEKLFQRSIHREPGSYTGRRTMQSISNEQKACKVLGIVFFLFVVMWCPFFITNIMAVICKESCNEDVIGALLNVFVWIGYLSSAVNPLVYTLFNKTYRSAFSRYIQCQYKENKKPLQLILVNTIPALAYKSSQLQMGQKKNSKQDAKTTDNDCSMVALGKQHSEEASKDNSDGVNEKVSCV

Results are given in words; binding and its absence hold for the method and conditions named. Binding seen in cells or lysates may run through a third protein. Some binding calls cover weakened binding; strength is not graded here.

One test has as its target D2LR-Rluc8 (human) (UniProt P14416). Nature of the test: FRET or BRET; BRET1 saturation assay in HEK293T cells; constant Rluc8-tagged donor cDNA (100 ng 3xHA 5-HT2AR-Rluc8 or 50 ng D2LR-Rluc8) and increasing mVenus-labeled acceptor cDNA (0-700 ng); coelenterazine-h 5 µM; read 48 h after transfection. (In general: In BRET a luciferase serves as donor, and the signal depends on an acceptor being close.)

For test [1], the target named is 3xHA 5-HT2AR-Rluc8 (human) (UniProt P28223). The test is described as above.
Test [2] addresses dopamine D2 receptor (D2R), long isoform D2LR (human) (UniProt P14416). Nature of the test: proximity ligation; in situ PLA on 4% PFA fixed, permeabilised HT22 cells 48 h after transient co-transfection; rabbit polyclonal NTS1R antibody and mouse D2R antibody; confocal microscopy; untransfected HT22 cells as controls.

Take “3xHA 5-HT2AR-mVenus (from UniProt P28223 1-471) (receptor)”: the binding entry with D2LR-Rluc8 (human) is “binds”.

For the substance “D2LR-mVenus (from UniProt P14416 1-443) (receptor)”, the binding result in test [1] was “binds”.

As to “neurotensin receptor 1 (NTS1R) (from UniProt P30989 1-418)”, in test [2], the binding entry is listed as “binds”.
